Measured values from article doi:10.1101/2024.08.29.610253.
Results are given in words; binding and its absence hold for the method and conditions named. Binding seen in cells or lysates may run through a third protein. Some binding calls cover weakened binding; strength is not graded here.

Sequences of proteins named here, by UniProt entry; tags and fusion partners are left off. A change or cut given only in a name is not applied to a line headed by its entry. A line that says so, or that is headed by a name, gives the form on record, which may keep a tag or linker.
UniProt O75334: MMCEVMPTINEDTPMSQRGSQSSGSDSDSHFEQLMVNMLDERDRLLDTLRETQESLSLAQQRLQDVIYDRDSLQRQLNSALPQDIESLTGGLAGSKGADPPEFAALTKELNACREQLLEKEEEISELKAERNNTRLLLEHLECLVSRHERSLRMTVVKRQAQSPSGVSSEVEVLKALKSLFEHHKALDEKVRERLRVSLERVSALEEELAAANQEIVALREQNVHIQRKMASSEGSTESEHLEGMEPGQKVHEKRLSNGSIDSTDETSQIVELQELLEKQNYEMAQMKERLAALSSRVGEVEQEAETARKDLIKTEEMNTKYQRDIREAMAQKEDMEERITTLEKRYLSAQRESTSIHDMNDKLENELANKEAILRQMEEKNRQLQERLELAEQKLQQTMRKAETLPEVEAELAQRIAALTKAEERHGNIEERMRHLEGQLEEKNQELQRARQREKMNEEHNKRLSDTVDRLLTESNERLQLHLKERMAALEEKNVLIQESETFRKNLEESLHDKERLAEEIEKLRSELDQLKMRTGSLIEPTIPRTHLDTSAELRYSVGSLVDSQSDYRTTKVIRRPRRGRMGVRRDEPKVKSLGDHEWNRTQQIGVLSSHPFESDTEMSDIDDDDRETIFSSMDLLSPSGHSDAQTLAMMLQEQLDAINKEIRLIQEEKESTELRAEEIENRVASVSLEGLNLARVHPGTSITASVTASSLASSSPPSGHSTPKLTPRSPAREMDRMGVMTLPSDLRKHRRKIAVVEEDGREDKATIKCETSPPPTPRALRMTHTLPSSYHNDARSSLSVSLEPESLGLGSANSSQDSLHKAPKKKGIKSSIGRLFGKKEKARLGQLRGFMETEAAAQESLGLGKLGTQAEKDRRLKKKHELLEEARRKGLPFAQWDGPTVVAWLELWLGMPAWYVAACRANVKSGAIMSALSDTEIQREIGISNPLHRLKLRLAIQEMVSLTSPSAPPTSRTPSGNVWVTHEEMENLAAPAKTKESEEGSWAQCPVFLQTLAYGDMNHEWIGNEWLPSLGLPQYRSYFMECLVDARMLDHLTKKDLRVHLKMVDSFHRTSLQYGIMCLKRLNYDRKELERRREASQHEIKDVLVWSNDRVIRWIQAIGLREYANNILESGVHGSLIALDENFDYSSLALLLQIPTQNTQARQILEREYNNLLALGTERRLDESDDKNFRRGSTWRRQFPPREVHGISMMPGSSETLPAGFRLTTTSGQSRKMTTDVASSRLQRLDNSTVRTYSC
liprin-α2 ΔCC2N (O75334, form named): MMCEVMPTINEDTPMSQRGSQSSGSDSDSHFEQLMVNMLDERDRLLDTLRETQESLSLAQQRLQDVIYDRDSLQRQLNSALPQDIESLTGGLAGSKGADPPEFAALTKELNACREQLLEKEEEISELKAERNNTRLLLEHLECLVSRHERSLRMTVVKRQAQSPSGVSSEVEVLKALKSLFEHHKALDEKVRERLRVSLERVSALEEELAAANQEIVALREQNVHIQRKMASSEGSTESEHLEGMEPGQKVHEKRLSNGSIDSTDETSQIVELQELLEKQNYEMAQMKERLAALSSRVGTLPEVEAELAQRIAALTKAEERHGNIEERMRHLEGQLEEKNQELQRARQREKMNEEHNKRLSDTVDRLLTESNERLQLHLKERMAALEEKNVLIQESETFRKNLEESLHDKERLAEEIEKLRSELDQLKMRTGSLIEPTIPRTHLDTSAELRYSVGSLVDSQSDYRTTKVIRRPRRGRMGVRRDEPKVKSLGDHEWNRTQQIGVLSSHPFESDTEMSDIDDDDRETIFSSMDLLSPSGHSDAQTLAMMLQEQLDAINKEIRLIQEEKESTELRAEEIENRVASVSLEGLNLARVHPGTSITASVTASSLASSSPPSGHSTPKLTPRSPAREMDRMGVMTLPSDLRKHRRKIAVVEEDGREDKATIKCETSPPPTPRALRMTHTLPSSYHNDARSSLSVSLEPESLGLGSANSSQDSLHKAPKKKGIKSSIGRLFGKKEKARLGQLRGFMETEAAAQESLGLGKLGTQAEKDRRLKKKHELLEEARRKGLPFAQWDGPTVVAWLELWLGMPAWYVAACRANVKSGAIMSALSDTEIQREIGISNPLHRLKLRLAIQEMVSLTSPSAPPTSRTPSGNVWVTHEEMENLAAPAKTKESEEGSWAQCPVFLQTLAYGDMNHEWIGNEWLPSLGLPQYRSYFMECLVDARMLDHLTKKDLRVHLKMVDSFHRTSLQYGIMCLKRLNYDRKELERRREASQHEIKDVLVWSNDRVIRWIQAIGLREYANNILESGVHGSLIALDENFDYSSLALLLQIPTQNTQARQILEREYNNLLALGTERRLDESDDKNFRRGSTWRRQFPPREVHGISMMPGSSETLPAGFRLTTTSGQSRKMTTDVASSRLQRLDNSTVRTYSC

The substances below were run against T1, ELKS1 (rat) (UniProt Q811U3) (assay: co-IP).
T1 sequence: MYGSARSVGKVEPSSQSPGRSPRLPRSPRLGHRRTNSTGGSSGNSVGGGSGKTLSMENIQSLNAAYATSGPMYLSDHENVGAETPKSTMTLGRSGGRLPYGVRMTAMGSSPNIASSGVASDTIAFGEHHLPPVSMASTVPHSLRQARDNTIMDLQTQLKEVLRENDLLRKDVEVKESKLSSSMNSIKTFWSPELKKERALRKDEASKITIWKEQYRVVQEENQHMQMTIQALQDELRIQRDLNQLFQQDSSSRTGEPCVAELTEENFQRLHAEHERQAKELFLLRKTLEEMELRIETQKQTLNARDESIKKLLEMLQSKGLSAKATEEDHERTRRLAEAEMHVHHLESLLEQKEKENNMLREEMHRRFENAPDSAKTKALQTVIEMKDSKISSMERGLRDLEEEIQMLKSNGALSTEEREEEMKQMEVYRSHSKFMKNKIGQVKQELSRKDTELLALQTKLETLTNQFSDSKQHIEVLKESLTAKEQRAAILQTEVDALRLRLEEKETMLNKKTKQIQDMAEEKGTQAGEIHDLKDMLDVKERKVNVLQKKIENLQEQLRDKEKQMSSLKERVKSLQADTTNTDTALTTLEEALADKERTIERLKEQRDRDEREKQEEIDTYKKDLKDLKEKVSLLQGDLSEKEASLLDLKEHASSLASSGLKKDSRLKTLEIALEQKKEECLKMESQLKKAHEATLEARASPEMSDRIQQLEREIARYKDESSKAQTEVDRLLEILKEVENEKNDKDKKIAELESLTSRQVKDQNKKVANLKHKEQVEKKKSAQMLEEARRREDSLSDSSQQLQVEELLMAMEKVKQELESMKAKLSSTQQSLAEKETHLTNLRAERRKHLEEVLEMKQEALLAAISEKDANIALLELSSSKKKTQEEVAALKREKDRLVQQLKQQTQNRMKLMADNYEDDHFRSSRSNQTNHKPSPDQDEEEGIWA
For “liprin-α2 (wild type, co-immunoprecipitation) (from UniProt O75334 1-1257)”, the binding was “binds”.
With “liprin-α2 E344R (from UniProt O75334 1-1257)” the binding was “binds”.
In the case of “liprin-α2 R346E (from UniProt O75334 1-1257)”, the binding is reported as “binds”.
“liprin-α2 ΔCC2N (from UniProt O75334 1-1257)” was tested, and the binding was “binds”.
